## Primary screen of a compound library

By UniProt entry, the sequences of proteins in these tests, tags left out.
UniProt E9BF75, entry or part of it: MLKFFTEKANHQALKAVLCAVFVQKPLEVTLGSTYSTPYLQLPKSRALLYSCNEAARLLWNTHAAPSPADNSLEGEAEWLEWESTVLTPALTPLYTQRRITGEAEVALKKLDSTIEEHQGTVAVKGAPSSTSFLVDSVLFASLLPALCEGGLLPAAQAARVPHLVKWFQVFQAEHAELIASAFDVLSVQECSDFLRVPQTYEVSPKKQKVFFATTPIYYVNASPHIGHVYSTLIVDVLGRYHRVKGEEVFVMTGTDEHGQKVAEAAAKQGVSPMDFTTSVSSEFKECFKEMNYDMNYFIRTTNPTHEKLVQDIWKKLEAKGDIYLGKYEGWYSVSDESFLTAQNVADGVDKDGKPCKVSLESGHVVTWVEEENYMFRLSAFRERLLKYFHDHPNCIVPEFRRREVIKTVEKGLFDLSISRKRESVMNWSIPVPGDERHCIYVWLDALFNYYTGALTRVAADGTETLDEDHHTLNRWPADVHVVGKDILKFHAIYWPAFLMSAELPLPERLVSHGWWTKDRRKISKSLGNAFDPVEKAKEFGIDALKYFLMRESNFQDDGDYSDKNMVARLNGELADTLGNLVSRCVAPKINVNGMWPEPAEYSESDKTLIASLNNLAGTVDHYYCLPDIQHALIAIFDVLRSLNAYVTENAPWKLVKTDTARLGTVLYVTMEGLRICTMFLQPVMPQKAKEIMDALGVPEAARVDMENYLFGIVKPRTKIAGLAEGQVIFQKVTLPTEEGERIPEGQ

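Methionyl-tRNA synthetase (putative), Leishmania donovani (UniProt E9BF75). Primary screen of methionyl-tRNA synthetase; the read-out is not stated. The test concentration is not given. The values are filed as inhibition. About 68,000 compounds were tested under these conditions; 0.035% (about 24) showed 50% or more at least once.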

All values are in %.
How 0% and 100% were set is not recorded. Most values in the screen are low, and negative values occur.
The compounds are a random part of those screened.

For Clc1cc(CN2CCCC(Cn3cncn3)C2)c2ncccc2c1 (stereo not drawn) the result was 12.42%.
For Cc1ccc(CN2CCC3(CC2)CC3CN(C)Cc2cccnc2)o1 (stereo not drawn) the result was 12.11%.
For CC(C)c1ncc(Cl)c(C(=O)N2CCN(C3CC3)CC2)n1 the result was 14.63%.
For c1ccc(COc2ccccc2CNC2CCc3ncnn3C2)cc1 (stereo not drawn) the result was 10.72%.
For CCNc1ncc(C(=O)NCCc2csc(-c3ncccn3)n2)cn1 the result was 3.323%.
For O=C(O)[C@@H]1CN(Cc2cc3c(cc2Cl)OCO3)C[C@H]1C1CC1 the result was 4.02%.
For Cc1cc(F)c(S(=O)(=O)Nc2ccn(CCCC#N)n2)cc1F the result was 20.99%.
For O=C(Cc1cccc(F)c1)N1CCN2C[C@H](Oc3cncnc3)C[C@H]2C1 the result was 15.96%.
For CN1C[C@H]2CN(C(=O)c3ccc4c(c3)OCO4)CCN2C1=O the result was 2.747%.
For Cc1c(NC(=O)CN(C)S(C)(=O)=O)cccc1OC1CCCC1 the result was 13.13%.
For CNc1nccc(-c2cnc3sc(C)c(C)n3c2=O)n1 the result was 15.78%.
For CCS(=O)(=O)NC(C(=O)NC)c1ccc(F)c(F)c1 (stereo not drawn) the result was 15.24%.
For CS(=O)(=O)CCOCCNc1ccc2ccc(F)cc2n1 the result was 8.659%.
For O=C(c1ccncc1)N1CCCn2nnc(Cn3cccn3)c2C1 the result was 13.14%.
For Nc1nc2c(c(N3CCCC3)n1)CCN(Cc1ccccn1)CC2 the result was 2.211%.
For CC(CNC(=O)c1cccc(C#N)c1)N1CCc2ccccc21 (stereo not drawn) the result was -0.3497%.
For CS(=O)(=O)c1ccc2c(c1)N(C(=O)c1cccc(F)c1)CCC2 the result was 10.65%.
For CCn1c(=O)nc2n1C(=O)N(c1cccc(Cl)c1)C2 the result was 12.86%.
For CCOC(=O)c1cnn(-c2cc(Oc3ccccc3C)ncn2)c1N the result was 14.92%.
For Cc1ccc(CNS(=O)(=O)CCCC#N)cc1F the result was 18.41%.
For CCCN(C(=O)c1ccncc1)c1nc2c(s1)CCc1c-2cnn1C the result was 15.1%.
For C[C@H]1C[C@@H]2CCN(C(=O)c3ccncn3)C[C@H]2O1 the result was 17.14%.
For COCCN(c1ccncc1)S(=O)(=O)c1cc(C)cc(F)c1 the result was 12.4%.
For Cn1nc(C(=O)NCc2ccc(OC3CCCCC3)nc2)ccc1=O the result was 2.71%.
For Cc1nc(CN2CCCc3cc(OC(F)(F)F)ccc32)oc1C the result was 5.211%.
For O=C(c1ccnnc1)N1C[C@H]2CCC[C@@H](OCc3cccnc3)[C@@H]2C1 the result was 5.185%.
For O=C(NC1(c2nc(C3CC3)no2)CCCCC1)c1ccncc1 the result was 13.66%.
For O=C(c1ccn(-c2cccc(F)c2)n1)N1CCN(CCO)CC1 the result was 5.618%.
For Cc1oc2c(c1C(=O)N1C[C@H](O)[C@]3(CCCO3)C1)CCCC2 the result was 15.84%.
For O=C(CC1CCC2(CC1)CCN(Cc1nccs1)CC2)N1CC=CC1 the result was 16.24%.
For O=C(Nc1ccccn1)N(CCO)Cc1ccsc1 the result was 20.41%.
For COc1cc(C)c(CN2CCC3(CC2)[C@H](O)C[C@@H]3OCCN)cc1C the result was 2.346%.
For c1cc(CNCCC2CCCO2)ccn1 (stereo not drawn) the result was 6.849%.
For CCC1=NOC(CNCc2cnc(-c3ccccc3C)s2)C1 (stereo not drawn) the result was 3.896%.
For CCS(=O)(=O)Nc1cnn(Cc2cccc(C)c2)c1 the result was -5.914%.
For Cc1noc(C2CCN(C(C)c3nc(C4CC4)no3)CC2)n1 (stereo not drawn) the result was 4.032%.
For O=c1[nH][nH]cc1-c1ccnc(NCCc2ccc(F)cc2)n1 the result was 13.35%.
For Cc1noc(C(C)N2CCN(Cc3cccc(C#N)c3)CC2)n1 (stereo not drawn) the result was 8.877%.
For CCc1ncnc2c1CCN(c1ncc(F)cn1)CC2 the result was 10.8%.
For CC(=O)NC[C@@]1(COc2cnccn2)C[C@@H](O)[C@@H](O)C1 the result was 9.023%.

Some entries from above, unchanged:

| Compound | Inhibition |
|---|---|
| `Cc1ccc(CN2CCC3(CC2)CC3CN(C)Cc2cccnc2)o1` (stereo not drawn) | 12.11 |
| `O=C(Nc1ccccn1)N(CCO)Cc1ccsc1` | 20.41 |

Measurements from “University of Dundee, Small-Polar-MMV Screening Library” (2021), ChEMBL document CHEMBL3988442.